Source: doi:10.1101/2020.09.03.282103
No constants are given. Whether binding was seen depends on the method and setting. In cells and extracts the contact can be indirect. These calls come from enrichment with a bait or labelling near it, and not all partners need be listed.

Sequences of proteins named here, by UniProt entry; tags and fusion partners are left off. A change or cut given only in a name is not applied to a line headed by its entry. Residues count along the entry.
UniProt P0DTC8, 16-121: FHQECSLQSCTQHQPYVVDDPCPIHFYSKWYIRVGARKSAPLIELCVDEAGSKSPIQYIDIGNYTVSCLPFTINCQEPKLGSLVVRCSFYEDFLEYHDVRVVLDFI
UniProt Q13283, whole entry, stated change not applied: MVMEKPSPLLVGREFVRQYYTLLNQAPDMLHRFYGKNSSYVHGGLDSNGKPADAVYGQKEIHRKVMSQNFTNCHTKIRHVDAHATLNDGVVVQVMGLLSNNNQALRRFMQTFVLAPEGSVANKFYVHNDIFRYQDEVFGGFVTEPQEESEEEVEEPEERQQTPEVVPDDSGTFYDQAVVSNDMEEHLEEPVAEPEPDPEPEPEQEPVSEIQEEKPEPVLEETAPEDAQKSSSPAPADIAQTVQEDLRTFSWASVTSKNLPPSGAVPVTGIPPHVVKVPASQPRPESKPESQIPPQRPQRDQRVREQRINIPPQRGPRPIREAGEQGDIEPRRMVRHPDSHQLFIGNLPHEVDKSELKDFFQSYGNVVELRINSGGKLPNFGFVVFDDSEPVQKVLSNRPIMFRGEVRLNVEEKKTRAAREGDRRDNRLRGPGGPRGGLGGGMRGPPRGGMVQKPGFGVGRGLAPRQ

Experiments:
Assay in all cases: proximity labelling
NSP6 (SARS-CoV-2) = NSP6 (SARS-CoV-2) (UniProt P0DTD1)
ORF8_Ct (SARS-CoV-2) = ORF8_Ct (SARS-CoV-2) (UniProt P0DTC8)
NSP9 (SARS-CoV-2) = NSP9 (SARS-CoV-2) (UniProt P0DTD1)
[1] = target: NSP3_Nt wild type (SARS-CoV-2) (UniProt P0DTD1)
NSP8 (SARS-CoV-2) = NSP8 (SARS-CoV-2) (UniProt P0DTD1)
NSP16 (SARS-CoV-2) = NSP16 (SARS-CoV-2) (UniProt P0DTD1)
NSP7 (SARS-CoV-2) = NSP7 (SARS-CoV-2) (UniProt P0DTD1)
[2] = target: G3BP1 (miniTurbo host bait) (UniProt Q13283)

In the case of ARF1 (from UniProt P84077 1-181), the binding (NSP6 (SARS-CoV-2)) is reported as “binds”.

For “CALR (calreticulin) (from UniProt P27797 18-417)”, the binding (ORF8_Ct (SARS-CoV-2)) was “binds”.

In the case of EIF4ENIF1 (from UniProt Q9NRA8 1-985), the binding (NSP9 (SARS-CoV-2)) is reported as “binds”.

In the case of FXR2 (from UniProt P51116 1-673), the binding [1] is reported as “binds” and the binding (NSP9 (SARS-CoV-2)) is reported as “binds”.

In the case of HECTD1 (from UniProt Q9ULT8 1-2610), the binding (NSP8 (SARS-CoV-2)) is reported as “binds”.

With HERC1 (from UniProt Q15751 1-4861) the binding (NSP8 (SARS-CoV-2)) was “binds”.

HLA-A (from UniProt P04439 25-365) was tested, and the binding (ORF8_Ct (SARS-CoV-2)) was “binds”.

In the case of HLA-B (from UniProt P01889 25-362), the binding (ORF8_Ct (SARS-CoV-2)) is reported as “binds”.

With HLA-C (from UniProt P10321 25-366) the binding (ORF8_Ct (SARS-CoV-2)) was “binds”.

With LSM14A (from UniProt Q8ND56 1-463) the binding (NSP9 (SARS-CoV-2)) was “binds”.

In the case of LSM14B (from UniProt Q9BX40 1-385), the binding (NSP9 (SARS-CoV-2)) is reported as “binds”.

With MEOIC (from UniProt A2RUB1 1-952) the binding (NSP16 (SARS-CoV-2)) was “binds”.

For MYOF (from UniProt Q9NZM1 1-2061), the binding (NSP6 (SARS-CoV-2)) was “binds”.

“NPEPPS (from UniProt P55786 1-919) (enzyme)” was tested, and the binding (NSP7 (SARS-CoV-2)) was “binds”.

In the case of PSMD2 (from UniProt Q13200 1-908), the binding (NSP8 (SARS-CoV-2)) is reported as “binds”.

With “UBA1 (from UniProt P22314 1-1058) (enzyme)” the binding (NSP8 (SARS-CoV-2)) was “binds”.

For UBAP2L (from UniProt Q14157 1-1087), the binding [2] was “binds”.
